{"source": "paper PMC9917249", "about": "“Zinc Inhibits the GABAAR/ATPase during Postnatal Rat Development: The Role of Cysteine Residue” (International Journal of Molecular Sciences, 2023)", "tested_on": "T1, GABAAR in cortical synaptoneurosomes (SNs) / plasma membranes", "T1 construct": "gene Gabra1; native receptors, cortical synaptoneurosomes or plasma membranes; subunit composition not defined", "test": "MQAE fluorescence, GABA-mediated Cl- influx in synaptoneurosomes", "format": "biochemical, Rattus norvegicus", "settings": "adult rats (P35); no Zn; pH 7.4; 50 µM bumetanide", "data": [{"compound": "NCCCC(=O)O", "note": "[GABA]", "values": [{"measurement": "EC50", "result": 7, "unit": "µM"}]}]}
